According to patent US7511167B2, “Two-photon dyes for real-time imaging of lipid rafts” (Korea University Industry and Academy Cooperation Foundation, priority 2006, dated 2009):

Experiments:
[1] = Two-photon fluorescence generalized polarization (GP) imaging of GUVs (Test Example 5); settings: for center GP value, high GP peak of bimodal Gaussian fit / center GP value, low GP peak of bimodal Gaussian fit: DOPC/sphingo/chol GUVs
Procedure: (§1) A GP image is obtained using a fluorescent dye by the following procedure. First, cells or model membranes are stained with a fluorescent dye. The intensities of fluorescence emitted from the stained cells or model membranes are measured at 400-460 nm and 470-530 nm. A GP value is calculated by Equation 2: […]
wherein I(400-460) represents the fluorescence intensity at a wavelength of 400 to 460 nm, I(470-530) represents the fluorescence intensity at a wavelength of 470 to 530 nm, and G is the sensitive correction factor in the two wavelength ranges.
The cells or model membranes are colored depending on the obtained GP value to obtain a final GP image.
As the GP value approximates −1, the cells or model membranes are in a hydrophilic environment, which is colored violet or blue. As the GP value approximates 1, the cells or model membranes are in a hydrophobic environment, which is colored red or orange.
The three kinds of GUVs were stained with Laurdan prepared in Comparative Example 1 and TPD1 prepared in Example 1. GP values were calculated in the equatorial sections of the GUVs and converted into images. Specifically, FIG. 6a through 6c are fluorescence GP images of the DOPC GUVs, DOPC/Sphingo/Chol GUVs and DPPC GUVs stained with Laurdan prepared in Comparative Example 1, respectively, and FIG. 6d through 6f are fluorescence GP images of the DOPC GUVs, DOPC/Sphingo/Chol GUVs and DPPC GUVs stained with TPD1 prepared in Example 1, respectively. […] Referring to FIG. 7, the GP distribution curves for the DPPC GUVs are narrow and the center GP values are 0.54 for Laurdan and 0.41 for TPD1, respectively. The center GP values in the DOPC GUVs are 0.044 for Laurdan and −0.35 for TPD1, respectively. The center GP values in the DOPC GUVs are generally negative because the DOPC GUVs is highly hydrophilic. However, the reason why the center GP value for Laurdan is positive is because Laurdan probably aggregated in the fluid membranes. […] Similar results could also be found in the GP distribution curves of the DOPC/sphingo/chol GUVs. Specifically, the GP values in the GUVs stained with Laurdan were slightly higher and the GP distribution curves of the GUVs stained with TPD1 were more symmetrical. When the respective distribution curves were converted into bimodal distribution curves by Gaussian Curve Fitting, the center GP values were 0.09 and 0.36 for the Laurdan-stained GUVs and −0.14 and 0.18 for the TPD1-stained GUVs, respectively. The two peaks for the TPD1-stained GUVs are symmetrical with respect to about zero and the respective GP values are substantially symmetrical. […] Also, the low GP distribution curve is much broader than the high one.
(§2) In the present invention, one- and two-photon fluorescence images were obtained using spectral confocal multiphoton microscopes (TCS SP2, Leica). An argon laser (488 nm) was used as the excitation source for one-photon fluorescence microscopy, and a mode-locked titanium-sapphire laser (780 nm) was used as the excitation source for two-photon fluorescence microscopy. Calculation of the GP values was performed using a home-made program based on the visual C++ format.

[2] = tested on: A431 cells; assay: GP imaging tests in cells (Test Example 6); type: cell-based
Procedure: as §1, §2
Intact A431 cells and A431 cells treated with methyl-β-cyclodextrin (MβCD), a drug removing cholesterol from plasma membranes, as samples were prepared. The intact A431 cells and the samples were stained with the two-photon dyes prepared in Example 1 and Comparative Example 1, and their images were obtained by two-photon fluorescence microscopy. The respective images were converted into GP images and the GP distribution curves were plotted. MβCD is known to destroy lipid rafts of cell membranes by removing cholesterol. In principle, the peak in the low GP distribution curve representing hydrophilicity should be unaltered while the peak in the high GP distribution curve representing hydrophobicity should disappear upon treatment of the cell membranes with MβCD. […] In contrast, the images of the TPD1-stained cells are brighter and more uniform than those of the Laurdan-stained cells. […] The hydrophobic domains (lipid rafts) are visualized by red fluorescence, and the hydrophilic domains (phospholipids) are visualized by blue fluorescence. […] From the image obtained after treatment with MβCD, it can be confirmed that the domains (lipid rafts) visualized by red fluorescence before treatment with MβCD completely disappeared. […]

[3] = Photoselection tests in giant unilamellar vesicles (Test Example 4); settings: DOPC GUVs, polarized two-photon fluorescence
Procedure: Two-photon fluorescence depending on the angle of polarize light provides information about the relative orientation of the two-photon markers present in lipid bilayers. Giant unilamellar vesicles (GUVs) composed of DOPO, DOPC/Sphingo/Chol and DPPC were prepared and stained with Laurdan prepared in Comparative Example 1 and TPD1 prepared in Example 1. The distributions of fluorescence emitted from the stained GUVs by polarization were examined. The results are shown in FIGS. 5a, 5b, 5c, 5e, 5f and 5g. FIGS. 5a, 5b and 5c are photographs showing the distributions of fluorescence emitted from the DOPC GUVs, DOPC/Sphingo/Chol GUVs and DPPC GUVs stained with Laurdan prepared in Comparative Example 1, respectively. FIGS. 5e, 5f and 5g are photographs showing the distributions of fluorescence emitted from the DOPC GUVs, DOPC/Sphingo/Chol GUVs and DPPC GUVs stained with TPD1 prepared in Example 1, respectively. […] In contrast, the fluorescence emitted from the TPD1-stained DOPC GUVs was very weak in areas perpendicular to the polarization but was strong in the other areas (FIG. 5e). […] In addition, the two-photon dye of the present invention was confirmed to be photoselective even in the DOPC GUVs and homogeneously stain the DOPC GUVs. FIGS. 5d and 5h are schematic diagrams illustrating the locations of the two-photon markers present in the lipid bilayers. […]

Row | SMILES | center GP value ([1]; DOPC GUVs) | center GP value, high GP peak of bimodal Gaussian fit [1] | center GP value, low GP peak of bimodal Gaussian fit [1] | center GP value ([1]; DPPC GUVs) | center GP value of the peak in the high GP distribution curve ([2]; A431 cells before MβCD treatment) | center GP value of the peak in the high GP distribution curve ([2]; A431 cells treated with MβCD) | orientation of the dye molecules in the lipid bilayer [3] | size of the peak in the high GP distribution curve after MβCD ([2]; A431 cells treated with MβCD)
1 | CCCCCCCCCCCC(=O)c1ccc2cc(N(C)C)ccc2c1 [Laurdan, reference compound] | 0.044 | 0.36 | 0.09 | 0.54 | 0.49 | 0.51 | randomly oriented | –
2 | CCCCCCCCCCCC(=O)c1ccc2cc(N(C)CC(=O)O)ccc2c1 [TPD1] | −0.35 | 0.18 | −0.14 | 0.41 | – | – | located parallel to the fatty acid tails | markedly decreased
